Data on 1 molecule can be found in publication PMC8847585, “Induction of senescence-associated secretory phenotype underlies the therapeutic efficacy of PRC2 inhibition in cancer” (Cell Death & Disease, 2022).

Molecules are shown by their SMILES.

This test relates to H3K27me3 in HeLa cell. The test can be described thus: Inhibition of cellular H3K27me3 (western blot quantification). The class given is cell-based. The following applies: Homo sapiens, 72 hr of treatment, n = 3. The method, then:
Cells were washed once with cold PBS and lysed by RIPA lysis buffer and incubated with 4 × SDS loading buffer at 95 °C for 10 min. Whole cell proteins were used for electrophoresis and then transferred to a nitrocellulose membrane. The membrane was blocked with Tris buffered saline containing 0.075% Tween-20 and 5% non-fat milk. Then the membranes were incubated with primary antibodies overnight at 4 °C. The next day, membranes were incubated with secondary antibodies for 1 h at room temperature.

`CCN(c1cc(-c2ccc(CN3CCOCC3)cc2)cc(C(=O)NCc2c(C)cc(C)[nH]c2=O)c1C)C1CCOCC1` [EPZ6438] gave an IC50 of 22.5 nM.

The IC50 is the concentration at which inhibition is half-maximal.
